Reference: the supplement of paper PMC9015667
Counter-ions that a name gives are not always drawn. The list shows a part of the results. Many values rest on one well or one pass, so single values are uncertain.

system: M229R (matched melanoma line resistant to BRAF inhibitors); assay: reduction in cell viability relative to untreated/vehicle; higher = more growth inhibition; conditions: 200 nM; 72 h

| SMILES | reduction in cell viability [%] |
| --- | --- |
| CC[C@H](c1ccc(O)cc1)[C@@H](CC)c1ccc(O)cc1 [Hexestrol] | < 0 |
| CN(c1nccc(=O)[nH]1)C1CCN(c2nc3ccccc3n2Cc2ccc(F)cc2)CC1 [Mizolastine] | < 0 |
| COc1cc2nccc(Oc3ccc(NC(=O)Nc4cc(C)on4)c(Cl)c3)c2cc1OC [Tivozanib] | < 0 |
| COc1cc2nc(N3CCN(C(=O)c4ccco4)CC3)nc(N)c2cc1OC [Prazosin hydrochloride] | < 0 |
| CC(C)c1ccc(Cn2ccc3c4c(N)nc(NC5CC5)nc4ccc32)cc1 | 48.1 |
| COc1nccc(-c2c(-c3ccc(F)cc3)ncn2C2CCNCC2)n1 | < 0 |
| COc1nc(C)cnc1NS(=O)(=O)c1cccnc1-c1ccc(-c2nnco2)cc1 [Zibotentan] | < 0 |
| CCOC(=O)Nc1ccc(NCc2ccc(F)cc2)nc1N [Flupirtine maleate] | < 0 |
| O=C(NCC1CCCCN1)c1cc(OCC(F)(F)F)ccc1OCC(F)(F)F (stereo not given) [Flecainide] | < 0 |
| CC(C(=O)O)c1cccc(C(=O)c2ccccc2)c1 (stereo not given) [Ketoprofen] | < 0 |
| CCc1cnn2c(NCc3ccc[n+]([O-])c3)cc(N3CCCC[C@H]3CCO)nc12 | 64.3 |
| O=C(/C=C/c1cccnc1)NCCCCC1CCN(C(=O)c2ccccc2)CC1 [FK866 (APO866, Daporinad)] | 82.7 |
| CC(C)NCC(O)COc1ccc(CCOCC2CC2)cc1 (stereo not given) [Betaxolol] | < 0 |
| Cc1cc(C(C)Nc2ccccc2)c2nc(N3CCOCC3)cc(=O)n2c1 (stereo not given) | < 0 |
| COc1cc([C@@H]2c3cc4c(cc3[C@@H](O[C@@H]3O[C@@H]5CO[C@@H](C)O[C@H]5[C@H](O)[C@H]3O)[C@H]3COC(=O)[C@H]23)OCO4)cc(OC)c1O [Etoposide] | 11.3 |
